Data reported in publication doi:10.1101/2020.12.14.422713.
Substitutions are numbered along the chain they refer to. No constants are given. Whether binding was seen depends on the method and setting. Binding seen in cells or lysates may run through a third protein. Binding calls can cover weak binding; strength is not graded here. Sequences can lack the tags named with a protein.

Tests used:
[1] = target: T1, cLUC-PhS3-RNase MK (K103R, K154R, K217R) (Petunia hybrida) (UniProt Q40875); test: split reporter
T1 sequence: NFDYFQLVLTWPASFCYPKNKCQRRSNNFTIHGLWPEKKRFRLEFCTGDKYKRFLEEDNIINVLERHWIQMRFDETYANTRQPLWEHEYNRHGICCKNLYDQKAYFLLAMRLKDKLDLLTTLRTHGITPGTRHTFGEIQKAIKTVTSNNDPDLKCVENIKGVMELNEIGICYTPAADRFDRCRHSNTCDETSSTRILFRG

[2] = target: T2, cLUC-PhS3-RNase (wild type) (Petunia hybrida) (UniProt Q40875); test: split reporter
T2 sequence: T1 sequence with R81K, R132K, R195K

[3] = target: T3, cLUC-PhS3-RNase MT (T102A, T153A) (Petunia hybrida) (UniProt Q40875); test: split reporter
T3 sequence: T1 sequence with T80A, R81K, T131A, R132K, R195K

[4] = target: T4, cLUC-PhS3-RNase MI (T102A, K103R) (Petunia hybrida) (UniProt Q40875); test: split reporter
T4 sequence: T1 sequence with T80A, R132K, R195K

[5] = target: T5, cLUC-PhS3-RNase MII (T153A, K154R, K217R) (Petunia hybrida) (UniProt Q40875); test: split reporter
T5 sequence: T1 sequence with R81K, T131A

[6] = target: T6, cYFP-PhS3-RNase MK (K103R, K154R, K217R; without signal peptide) (Petunia hybrida) (UniProt Q40875); test: split reporter
T6 sequence: T1 sequence

[7] = target: T7, cYFP-PhS3-RNase MII (T153A, K154R, K217R; without signal peptide) (Petunia hybrida) (UniProt Q40875); test: split reporter
T7 sequence: T1 sequence with R81K, T131A

[8] = target: T8, cYFP-PhS3-RNase MT (T102A, T153A; without signal peptide) (Petunia hybrida) (UniProt Q40875); test: split reporter
T8 sequence: T1 sequence with T80A, R81K, T131A, R132K, R195K

[9] = target: T9, cYFP-PhS3-RNase MI (T102A, K103R; without signal peptide) (Petunia hybrida) (UniProt Q40875); test: split reporter
T9 sequence: T1 sequence with T80A, R132K, R195K

[10] = target: T10, cYFP-PhS3-RNase (wild type, without signal peptide) (Petunia hybrida) (UniProt Q40875); test: split reporter
T10 sequence: T1 sequence with R81K, R132K, R195K

[11] = target: T11, MBP-tagged PhS3-RNase MT (T102A, T153A; without signal peptide) (Petunia hybrida) (UniProt Q40875); test: pull-down
T11 sequence: T1 sequence with T80A, R81K, T131A, R132K, R195K

[12] = target: T12, MBP-tagged PhS3-RNase (wild type, without signal peptide) (Petunia hybrida) (UniProt Q40875); test: pull-down
T12 sequence: T1 sequence with R81K, R132K, R195K

[13] = target: T13, MBP-tagged PhS3-RNase MII (T153A, K154R, K217R; without signal peptide) (Petunia hybrida) (UniProt Q40875); test: pull-down
T13 sequence: T1 sequence with R81K, T131A

[14] = target: T14, MBP-tagged PhS3-RNase MI (T102A, K103R; without signal peptide) (Petunia hybrida) (UniProt Q40875); test: pull-down
T14 sequence: T1 sequence with T80A, R132K, R195K

[15] = target: T15, MBP-tagged PhS3-RNase MK (K103R, K154R, K217R; without signal peptide) (Petunia hybrida) (UniProt Q40875); test: pull-down
T15 sequence: T1 sequence

With PhS3SLF1-nLUC (Petunia hybrida) the binding [1] was “binds”, the binding [2] was “binds” and the binding [3] was “binds”. For the same substance, the binding [4] was “binds weakly” and the binding [5] was “binds weakly”.

For nYFP-PhS3LSLF1 (Petunia hybrida), the binding [6] was “binds”, the binding [7] was “binds” and the binding [8] was “binds”. For the same substance, the binding [9] was “binds” and the binding [10] was “binds”.

SUMO-His-PhS3LSLF1 (Petunia hybrida) was tested, and the binding [11] was “binds”, the binding [12] was “binds” and the binding [13] was “binds”. For the same substance, the binding [14] was “binds” and the binding [15] was “binds”.

In the case of PhS3LSLF1-nLUC (Petunia hybrida), the binding [1] is reported as “binds”, the binding [2] is reported as “binds” and the binding [3] is reported as “binds”. The binding [4] was “binds” and the binding [5] was “binds”.
